# Primary screen of a compound library

From ChEMBL document CHEMBL3988442, “University of Dundee, Small-Polar-MMV Screening Library” (2021).

A: 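Phenotypic screen: M. tuberculosis growth, glucose 7H9 medium, 3 days; the read-out is not stated. Tested at 50 µM. The record gives no direction; compounds that gave an IC50 in retests scored well above the rest, so higher reads as more growth inhibition. About 69,000 compounds were tested under these conditions; 1.1% (about 760) showed 50% or more at least once.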
B: 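Whole-cell growth test on Mycobacterium tuberculosis, read after 4 days in a medium based on cholesterol and the lipid DPPC; the read-out is not stated. Tested at 50 µM. The record gives no direction; compounds that gave an IC50 in retests scored well above the rest, so higher reads as more growth inhibition. Of about 69,000 compounds tested this way, about 370 (0.54%) reached 50% or more in at least one test.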

Each number is a percent effect as filed. The record does not define 0% and 100%; most values in the screen are far below 50% and negative numbers occur (in some assays of this library far below -100). Compounds were drawn at random from those tested, without regard to their results. Two or more numbers in one place are separate tests of the same structure; such repeats can differ widely.

- CCCc1cc(N(CCOC)CC(F)F)n2ncnc2n1 : A: -22.49% and -7.877%; B: -11.07%
- CN1CCN(c2ccccc2NC(=O)NCCc2ccccc2)CC1 : A: 9.342%; B: -13.42%
- CCCn1cc(-c2cc(-c3ccoc3)c(C#N)c(N)n2)c(C)n1 : A: -42.93%; B: -11.9%
- CCc1cnc(CN(C)C(=O)NC2CCN(C)C2=O)s1 (stereo not drawn) : A: -1.962%; B: -9.204%
- COc1ccc(CCNC(=O)C2CCOC2)c(Cl)c1 (stereo not drawn) : A: -19%; B: 4.966% and 9.555%
- Cc1cc(N2CCCN(c3ccnc(C)c3)CC2)ccn1 : A: 27.24%; B: 13.1%
- CCOc1ccc2ccccc2c1CNCC1CCNCC1.Cl.Cl : A: 8.78% and -3.483%; B: 19.57%
- CC(C)NC(=O)CN(C)CC(=O)/N=c1/cc[nH]n1C(C)C1CC1 (stereo not drawn) : A: -45.07%; B: -42.75%
- Cc1cc(CN(C)C(=O)NCC2CCS(=O)(=O)C2)no1 (stereo not drawn) : A: 26.37%; B: 15%
- COCCN(Cc1ccccc1)c1cc(C)ncn1 : A: 24.66% and 2.178%; B: 19.48%
- CC(C)C(C(=O)N1CCCN(c2cccnn2)CC1)n1cncn1 (stereo not drawn) : A: 14.29% and 1.388%; B: -7.266%
- O=C(O)C(F)(F)F.[H][C@@]12CCN(C(C)C)C[C@]1([H])CN(C(=O)c1ccc(C)nc1)C2 : A: -43.35%; B: -7.275%
- CN(CC1(O)CCCCC1)C1CCCN(Cc2noc(C3CC3)n2)C1 (stereo not drawn) : A: -29.27%; B: -13.13%
- Cc1cccc(C)c1OCC(=O)Nc1cccn(C)c1=O : A: 6.506% and -12.91%; B: -13.28%
- Nc1nc(CN2CCOC(Cn3cncn3)C2)nc2ccccc12 (stereo not drawn) : A: -2.295%; B: -8.628%
- COc1ccccc1OCCNC1CCCN(Cc2noc(C)n2)C1 (stereo not drawn) : A: -22.45%; B: -21.75%
- Cc1cc(CN(C)C(=O)C(c2ccccc2)N2CCSCC2)no1 (stereo not drawn) : A: 26.19%; B: 5.285% and 0.1399%
- CC(C)(C)CC(NC(=O)N1CCC(C(N)=O)CC1)C(F)(F)F (stereo not drawn) : A: 11.78%; B: -2.489%
- NC(=O)CCSc1ccccc1NCc1ccc(Cl)s1 : A: 3.711%; B: 11.5%
- CCC1CCCCCN1C(=O)c1cc(C#N)c(SC)[nH]c1=O (stereo not drawn) : A: -26.57%; B: 0.3762%
- CC(NS(C)(=O)=O)c1nc(-c2ccc(Br)cc2)no1 (stereo not drawn) : A: 13.13%; B: 14.83%
- COc1cccc(CN(C(=O)Nc2nncs2)C2CCC(O)CC2)c1 (stereo not drawn) : A: -9.859%; B: 1.148%
- O=C(c1cn(-c2ccccc2Cl)nn1)N1CCN(CCO)CC1 : A: 10.04%; B: -8.748%
- O=C(O)C(F)(F)F.O=C(O)C(F)(F)F.[H][C@@]12CCCO[C@]1([H])[C@H](N(C)Cc1ccco1)CN(Cc1nccs1)C2 : A: 3.922%; B: 3.919%
- O=C(O)C(F)(F)F.[H][C@@]12COC[C@@H](C(=O)N3CCCCO3)[C@]1([H])CN(C1CCCC1)C2 : A: -12.01% and -2.891%; B: -7.276%
- O=C1CN(C(=O)c2ccc(F)cc2)CC(O)CN1Cc1cccs1 (stereo not drawn) : A: -2.345%; B: -15.53%
- Cc1ccc(-c2ccc(Cl)nn2)cc1S(=O)(=O)N1CCOCC1 : A: 12.87%; B: -6.941%
- CC(C)CC1SCC(=O)Nc2c1cnn2C1CCCC1 (stereo not drawn) : A: 9.556%; B: 5.752%
- CN(Cc1ccccn1)C1COC2(CCN(Cc3cccnc3)CC2)C1 (stereo not drawn) : A: -12.29%; B: -11.58%
- [H][C@]12CC[C@]([H])(C1)N(C(=O)c1cccnc1-c1cc(OC)ccc1F)C2 : A: 16.91%; B: -8.925%
- CN(Cc1ccccc1)CC(O)Cn1cnc2c(Cl)cc(Cl)cc2c1=O (stereo not drawn) : A: 8.1%; B: 13.5%
- CN1CCN(CC2CC2)C(=O)c2cnc(N3CCOCC3)nc21 : A: -12.41%; B: -26.15%
- CN(c1ncc(C(=O)Nc2ccccc2)c(N)n1)C1CCCCC1 : A: -14.66%; B: 11.19%
- O=C(CN1CCCC(Cn2cncn2)C1)NCCc1cccs1 (stereo not drawn) : A: 15.83%; B: 22.63%
- Cc1nc2c(c(=O)[nH]1)CCN(C(=O)c1cccc3nccnc13)C2 : A: -11.76%; B: -6.645%
- Cc1ccc(-c2ccnc(NCC3(N(C)C)CCOCC3)n2)c(C)n1 : A: 6.239%; B: -11.36% and -13.03%
- O=C(c1c[nH]cn1)N1CCCn2c(nnc2Cn2cccc2)C1 : A: -0.6291% and -1.653%; B: -8.237% and -2.258%
- COc1ccc(OC)c(C(O)CN2CCN(C3CCCC3)CC2)c1 (stereo not drawn) : A: -1.087%; B: 6.201% and -2.933%
- COCCNC(=O)CN1CCN(c2nc(C)cs2)C(C)C1 (stereo not drawn) : A: 20.34%; B: -4.724%
- CN(C)C(=O)C1CCCN(C(=O)c2ccccc2-n2cc(CN)cn2)C1 (stereo not drawn) : A: -36.1%; B: -14.24%
- Cc1ncncc1C(=O)N1CCCN(Cc2cnn(C(C)C)c2)CC1 : A: -27.48%; B: 2.594% and -18.07%
- CN(c1c(F)cccc1F)S(=O)(=O)c1cc2c(c(C(=O)O)c1)OCCO2 : A: -19.64% and 5.913%; B: -17.71%
- CNC(=O)COc1ccc(CNCc2ccc(F)cc2F)cc1 : A: 0.7935% and -13.25%; B: -9.977%

Repeated from the top, 3 entries:

| SMILES | A | B |
|---|---|---|
| `CCCc1cc(N(CCOC)CC(F)F)n2ncnc2n1` | -22.49 and -7.877 | -11.07 |
| `CN1CCN(c2ccccc2NC(=O)NCCc2ccccc2)CC1` | 9.342 | -13.42 |
| `CCCn1cc(-c2cc(-c3ccoc3)c(C#N)c(N)n2)c(C)n1` | -42.93 | -11.9 |